These results are taken from the supplement of paper PMC5949888.

Most values lie at the floor of the assay. Slopes are relative: functional sequences can read slightly below zero.

This data set concerns Saccharomyces cerevisiae PS128 hsf1 delta, HSF1(1-493) fusion. The data set is described as follows: growth estimate (transactivation domain function in HSF1 fusion, heat-shock survival) (a.u. (slope of normalised read count over time)); higher = stronger growth at 37°C, i.e. more transactivation activity. The following applies: library: random library. On the procedure: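 Random 60-nt DNA library encoding peptides of up to 20 aa, fused to the C-terminus of yeast HSF1 residues 1-493 (C-terminal TAD deleted) and expressed from the native HSF1 promoter on a CEN plasmid in hsf1-deleted S. cerevisiae PS128. Cells were selected at 37°C on -trp 5-FOA plates for 0, 2, 4, 6 and 8 days and amplicons were sequenced. Growth estimate is the slope of a robust linear fit of total-sum-normalised read counts (normalised to the first time point) over time, using at least 2 replicates. Sequences are classed functional (TAD activity) above a threshold of -0.13, set from stop-codon control sequences.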
Take AREDITHDQGRRLRYDQCSG: the growth estimate is below -0.25. Take PSYSHRALGQGRATPRRVAR: the growth estimate is below -0.25. In the case of CKLNRCPCQTDESCSVGTEP it was below -0.25. In the case of STMWLTRAA it was below -0.25; in that of NLAIGKHAAAQYSQLRGAEN, -0.229; in that of TPSSVIAFLYPLSELR, below -0.25. In the case of FAYTLPGASL it was below -0.25. As for RSSVTLCRKSALLSSQVTEQ, the growth estimate was below -0.25. In the case of IKARLARSTHGSTVL it was below -0.25. With FDDRSPE, the growth estimate is below -0.25. The figure for FVRHPPSRGASLSTQ is below -0.25; for RPQ it is below -0.25. In the case of IGGACWGY it was below -0.25; in that of VRVGTWERYSV, below -0.25; in that of THGVSTGSSEALFGFGYPGY, below -0.25. The figure for SSLVTVISVLNHLLII is below -0.25.

Consider IPEKLGGACQETQYSVIRIY, for which the growth estimate is below -0.25. The figure for YWIALTATKVSMQRGLGFRP is below -0.25; for WVYSMSMFGVLGGHVQCLLV it is -0.236. In the case of SRVILGPPADRGASYGEIGR, the growth estimate was below -0.25. The figure for INVDRC is below -0.25; for DTK it is below -0.25. As to ESKSHHVIADCSAIR, the growth estimate was below -0.25.

Turning to TVTEFNHPRVLIEASFKAEN, the growth estimate was below -0.25. In the case of YSERIIPEPPRAECPPGTAQ it was below -0.25; in that of GLRAGTILGNLYRL, below -0.25; in that of IPPFPSTSVGIWGACLHSIW, below -0.25. The figure for TQNSNTELGSLYQASGASKM is below -0.25; for SWSIAIATTVDSRRTG it is below -0.25; for LISPDPIRAAAGPQVGSEVF it is below -0.25. As to DGPETEVFSLHEGL, the growth estimate is below -0.25. In the case of AVSSEITRLNYCVSYSPSLS it was below -0.25. In the case of SRSATTRQSDR it was below -0.25; in that of QDQCREFIAALYAHLIVFGT, below -0.25; in that of TFIIEEVSHVFLEGIRT, below -0.25. In the case of VGVGNTQRKTVFYTCWGTPR it was below -0.25; in that of LGILRILRFADTNFRDCALR, below -0.25.

Regarding DLKFMTSRATHRLGACNVRW, the growth estimate is below -0.25. The figure for ANDGRVVGTACLSDESVAPF is below -0.25; for AGGSTRRYRWCKLCLLLTVI it is below -0.25.

On to GLASKHMPNEGPRLNDLRHT, for which the growth estimate was below -0.25. The figure for VERTRSRAVNPAGRSVGPHN is below -0.25; for LGGHGRP it is below -0.25; for VCGPGFKAISGIVDNNKIRT it is below -0.25. The figure for DRRLCRS is below -0.25; for IPKK it is -0.246; for SKTG it is below -0.25.

For RDKRLRSSSSSARPPRPTTE, the growth estimate is below -0.25.

Consider TCSCQ, for which the growth estimate was -0.246. In the case of MLRPQRGHGWSGYLAEKARM, the growth estimate was below -0.25. The figure for SDQMLRWKVSKNGSVRPNSG is below -0.25; for GMGFVPLIQ it is below -0.25; for RPLLVQDSTRAWCFEGLTLH it is below -0.25. The figure for YGGPRVG is below -0.25. With VSDYRQGRIETYQEL, the growth estimate is below -0.25. In the case of VYRRTTRRRPRGH it was below -0.25.

As for HDAERSN, the growth estimate is below -0.25. The figure for DWGAIY is below -0.25. As to WLSQ, the growth estimate is below -0.25. In the case of YCT it was below -0.25; in that of HTCE, -0.111; in that of SCRFRSEDIT, below -0.25. The figure for AVKVADKTTWIRSSVNGGVR is below -0.25; for LVHQYATGG it is below -0.25; for RNPRPGLSGSLTPLANPRRS it is below -0.25.

As to LDRHGHSRLYGTSFVSAA, the growth estimate is below -0.25.

Consider RLDRPGGVFSIAKLRAAERT, for which the growth estimate was below -0.25. In the case of YYPGRERTGESIGSGMTVED it was below -0.25; in that of DQSLEV, below -0.25; in that of KASCCHPAVFARERLRICIM, below -0.25. In the case of TPRPSGLETGSLRQSQSLKF it was below -0.25; in that of HNQTATSSNGCR, below -0.25; in that of LGLRVGDLLNQFNRRAGRNQ, below -0.25.

For VDLGWANRGTTGRGG, the growth estimate was below -0.25. Take LHSPYTWDIHLYSPAGHLVQ: the growth estimate is below -0.25. With VRQRWRLMSGLLSLVKLQDR, the growth estimate is below -0.25. FNGVRGGRGILALQHLGRHN: the growth estimate was below -0.25. The figure for NLVPLRLVSTDNPGLGS is below -0.25. On to NVCGLIATNIPVNRSVSVAP, for which the growth estimate was below -0.25. In the case of LILSR it was below -0.25. The figure for EQLPACANLISLVSTFGPRG is below -0.25; for EGRFKGCKGKWLFRSR it is below -0.25. The figure for LMEGEAWGRGNHWYIVPGCH is below -0.25; for DRQDCGSFRSFHLFSE it is below -0.25. On to GGRAEALCA, for which the growth estimate is below -0.25. The figure for HGDGGVSGGTKLSVVLSDTR is below -0.25.

For the substance AYGMHAKGITETHDRQKLRP, the growth estimate is below -0.25.

Regarding SAQVR, the growth estimate is below -0.25. The figure for CYPR is below -0.25; for RTYEIPRRRYGEGDPGLVAS it is below -0.25; for KADPL it is below -0.25. In the case of LICGSFLTCQGQPSVNRWKD it was below -0.25.

Regarding VHIRPVLVIARRLRVFRFSG, the growth estimate was below -0.25.

For the substance FVGRNRSLVDGLPTAATRQI, the growth estimate is below -0.25. In the case of ASMGFSGLEVAVSAENLSTP it was below -0.25. In the case of IGSFCAAHLRY it was below -0.25; in that of STRCAWTTNESQRAPRGRYP, below -0.25. As to NEGIDEARGDTA, the growth estimate is below -0.25. The figure for CTIG is below -0.25. The figure for WCYSYMQWFSSRNAACLVSA is below -0.25; for DHKWRTSLQEDASLHRSGSA it is below -0.25. In the case of VHVIPLKPPINVEHDIQEKA it was below -0.25; in that of NDPLILSQPLVVR, below -0.25. As for DCQAGSLTLA, the growth estimate is below -0.25. The figure for GCGVCLLVSQGLPAGAHEPG is below -0.25. For the substance CQFFIFGCRQRVDADSV, the growth estimate was below -0.25. The figure for TLHRATLYMRDPSCYRRDIT is below -0.25. The figure for MACSRGSCNSSI is below -0.25. The figure for QLVCPIVAHTWHIQGFWLGC is below -0.25; for HRGADAGLWQFVNGPR it is below -0.25. Consider PRRSRYFNTRFGSSEQDLTH, for which the growth estimate is below -0.25.

Consider LVPRTSSGAYVH, for which the growth estimate was below -0.25. Take KGTRTAELLLGGDSVRNWWA: the growth estimate is below -0.25. The figure for LKFRLVVC is below -0.25; for LRDSARSKLW it is below -0.25.

With RDMYLQ, the growth estimate was below -0.25. For VQAQRCANREAHEWGDDRDL, the growth estimate is below -0.25. The figure for QILPWP is below -0.25. The figure for LSYGGF is below -0.25; for AQRGDFRRTRLSTQVSNLIL it is below -0.25. The figure for RCCLGDRVRAVAQVTRRGMF is below -0.25; for PRVRLFG it is below -0.25.

Turning to RLLTSPFLGRRPCHGVCLTG, the growth estimate is below -0.25. For the substance LMLAVGVVKHWSRVRLGR, the growth estimate is below -0.25. In the case of NGPKNMISLKQ it was below -0.25; in that of PRFRIMGGGAAVKGHVTWWP, below -0.25. In the case of AVRTGELSERL it was below -0.25; in that of SPTVALRSCPKCRS, below -0.25; in that of EVGASQLKTTRIRVDNIVCL, below -0.25. In the case of DQPAGSANQVVVVPVSSG it was below -0.25; in that of GALNVRLVGVSGSGKLNENG, below -0.25. Consider RTYHVNTGGTRVQGECDRTS, for which the growth estimate was below -0.25. For the substance HKGSRGSFETPPSSVAVPAT, the growth estimate was below -0.25. LNFGRLIWDHPARPVYGKKV: the growth estimate is below -0.25. In the case of CGGSSISFFCSC it was below -0.25; in that of SHPNLFRIPYGRRYI, -0.219; in that of IMTF, below -0.25.

With VNWAT, the growth estimate is below -0.25.

Turning to YGSSCPLWTLLYINELWVLQ, the growth estimate was below -0.25. In the case of LVGVRITCRRRPSKTITESP it was below -0.25; in that of NSPNSCPSFRYRLLASLLWS, below -0.25. In the case of LTISHPGCRTTVSACRMGLS it was below -0.25; in that of YLDNAWVRLQAKLIGHEIRT, below -0.25.

On to SRFGVTVSVRLPGTGNSVVI, for which the growth estimate is below -0.25. As for HVTYPGDGNNVHREGSKAKA, the growth estimate was below -0.25.

Regarding RAFSKLRCRTWGSLVKVSGP, the growth estimate is below -0.25.

Turning to DLAGSGVDRLAGINLYPVVY, the growth estimate is below -0.25. In the case of TFFPALYKYVSS it was below -0.25; in that of VTCSHLSQHSMRGFRGLSAS, below -0.25.
